Taken from: PubChem BioAssay AID1259274 (Sanger Institute, 2017)

Screen: 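Kinase knock-downs that cut colorectal cancer cell viability or boost drug killing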 (primary screen)
Cells: human RKO colorectal cancer cells
Reagent: siRNA pool against human genes
Treatment: anchor drugs BYL719 at 1 µM, cetuximab at 5 µg/ml or trametinib at 10 nM; DMSO vehicle as the no-drug arm
Read-out: 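Viability as fraction of non-targeting pool 2 control, averaged across replicates, robust z-score for single knock-down, and a combination synergy score per anchor drug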
Direction: viability z-score, siRNA alone: higher = more viable cells; low values mean essential gene; viability, siRNA alone, vehicle: higher = more viable cells; synergy score with BYL719 and synergy score with Trametinib and synergy score with Cetuximab: higher = stronger combined killing with the drug
Hit rule: 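Essential when the robust viability z-score with siRNA only falls below -3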
Meaning of the calls: active = essential when knocked down alone; inactive = no change alone
Here is a random part of 794 reagents. 11 of all reagents (1.4%) count as active. 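Calls rest on knock-down without drug only; synergy scores with anchor drugs were not used for the essential call.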 No viability above 1 is reported: the scale is capped. Reagent sequences are not shown. Not given: the amount of reagent, the time to read-out.

Target gene	viability z-score, siRNA alone	viability, siRNA alone, vehicle (fraction of control)	synergy score with BYL719	synergy score with Trametinib	synergy score with Cetuximab	activity call
SLK	0.495	0.94	-0.0631	-0.131	-0.0596	inactive
EPHA7	-0.568	0.849	-0.145	-0.0309	-0.114	inactive
CHKB	0.477	0.939	-0.0464	-0.221	-0.0154	inactive
MAP2K7	0.112	0.908	-0.0161	-0.167	0.136	inactive
EPHB3	0.666	0.955	0.0691	-0.0995	0.109	inactive
PDIK1L	0.039	0.901	-0.0987	-0.15	0.00794	inactive
IGF2R	1.19	1	0.0225	-0.147	0.0779	inactive
MAST1	1.19	1	-0.0929	-0.207	0.0197	inactive
PRPS1L1	-0.0546	0.893	0.0869	-0.112	0.00842	inactive
DGKB	-0.753	0.833	0.113	-0.142	0.0454	inactive
RPS6KA6	-0.434	0.861	0.026	-0.0432	0.0149	inactive
RIOK1	-0.902	0.821	-0.13	-0.236	-0.109	inactive
LIMK1	1.19	1	-0.0054	-0.181	0.000628	inactive
ULK4	-0.035	0.895	0.0193	-0.0882	-0.00262	inactive
ACSL6	0.207	0.916	-0.118	-0.141	0.032	inactive
UCK2	-0.616	0.845	-0.193	-0.273	-0.155	inactive
UHMK1	1.14	0.996	0.0456	-0.133	0.0466	inactive
CSNK1A1L	-1.3	0.787	-0.176	-0.274	-0.152	inactive
GAK	-0.78	0.831	-0.00754	-0.3	0.00256	inactive
PRKAA2	0.0479	0.902	-0.188	-0.281	-0.0979	inactive
PLK1	-5.94	0.389	-0.0455	-0.0216	-0.0828	active
MAP3K14	-0.617	0.845	-0.0911	-0.0783	-0.155	inactive
NUCKS1	0.139	0.91	-0.0536	-0.186	0.0122	inactive
PRKAR1B	-0.121	0.888	-0.0291	-0.106	0.00949	inactive
MAGI2	0.384	0.931	-0.135	-0.221	-0.0246	inactive
BLK	1.19	1	-0.13	-0.0304	0.0108	inactive
HCK	0.0042	0.898	-0.111	-0.241	-0.0942	inactive
DCLK3	0.17	0.913	-0.139	-0.157	-0.0657	inactive
FGFRL1	1.19	1	0.102	-0.181	0.0353	inactive
KIT	-1.26	0.79	-0.151	0.037	-0.0143	inactive
NRBP2	-1.07	0.806	-0.0711	-0.109	0.0118	inactive
DCLK2	0.969	0.981	-0.0626	0.00356	0.151	inactive
HUNK	-0.639	0.843	-0.194	-0.12	-0.0288	inactive
MAP3K2	0.134	0.909	-0.13	-0.228	-0.0905	inactive
ROCK1	0.596	0.949	-0.213	-0.0812	-0.0509	inactive
WNK2	1.19	1	-0.0507	-0.317	0	inactive
RBKS	-0.169	0.883	-0.23	-0.194	-0.117	inactive
WIPF1	-1.17	0.798	0.00526	-0.102	0.0264	inactive
KCNH2	-0.693	0.839	-0.0621	-0.218	-0.0124	inactive
PNCK	0.214	0.916	-0.0384	-0.156	-0.00636	inactive
